3 substances from PMC11032339 can be followed below.

These are yes or no findings as the source states them, for the method shown. A result given as binding can be weak or reduced; the word gives no strength.

The target of this assay is T1, soluble full-length recombinant ADAMTS13 (UniProt Q76LX8).
T1 sequence: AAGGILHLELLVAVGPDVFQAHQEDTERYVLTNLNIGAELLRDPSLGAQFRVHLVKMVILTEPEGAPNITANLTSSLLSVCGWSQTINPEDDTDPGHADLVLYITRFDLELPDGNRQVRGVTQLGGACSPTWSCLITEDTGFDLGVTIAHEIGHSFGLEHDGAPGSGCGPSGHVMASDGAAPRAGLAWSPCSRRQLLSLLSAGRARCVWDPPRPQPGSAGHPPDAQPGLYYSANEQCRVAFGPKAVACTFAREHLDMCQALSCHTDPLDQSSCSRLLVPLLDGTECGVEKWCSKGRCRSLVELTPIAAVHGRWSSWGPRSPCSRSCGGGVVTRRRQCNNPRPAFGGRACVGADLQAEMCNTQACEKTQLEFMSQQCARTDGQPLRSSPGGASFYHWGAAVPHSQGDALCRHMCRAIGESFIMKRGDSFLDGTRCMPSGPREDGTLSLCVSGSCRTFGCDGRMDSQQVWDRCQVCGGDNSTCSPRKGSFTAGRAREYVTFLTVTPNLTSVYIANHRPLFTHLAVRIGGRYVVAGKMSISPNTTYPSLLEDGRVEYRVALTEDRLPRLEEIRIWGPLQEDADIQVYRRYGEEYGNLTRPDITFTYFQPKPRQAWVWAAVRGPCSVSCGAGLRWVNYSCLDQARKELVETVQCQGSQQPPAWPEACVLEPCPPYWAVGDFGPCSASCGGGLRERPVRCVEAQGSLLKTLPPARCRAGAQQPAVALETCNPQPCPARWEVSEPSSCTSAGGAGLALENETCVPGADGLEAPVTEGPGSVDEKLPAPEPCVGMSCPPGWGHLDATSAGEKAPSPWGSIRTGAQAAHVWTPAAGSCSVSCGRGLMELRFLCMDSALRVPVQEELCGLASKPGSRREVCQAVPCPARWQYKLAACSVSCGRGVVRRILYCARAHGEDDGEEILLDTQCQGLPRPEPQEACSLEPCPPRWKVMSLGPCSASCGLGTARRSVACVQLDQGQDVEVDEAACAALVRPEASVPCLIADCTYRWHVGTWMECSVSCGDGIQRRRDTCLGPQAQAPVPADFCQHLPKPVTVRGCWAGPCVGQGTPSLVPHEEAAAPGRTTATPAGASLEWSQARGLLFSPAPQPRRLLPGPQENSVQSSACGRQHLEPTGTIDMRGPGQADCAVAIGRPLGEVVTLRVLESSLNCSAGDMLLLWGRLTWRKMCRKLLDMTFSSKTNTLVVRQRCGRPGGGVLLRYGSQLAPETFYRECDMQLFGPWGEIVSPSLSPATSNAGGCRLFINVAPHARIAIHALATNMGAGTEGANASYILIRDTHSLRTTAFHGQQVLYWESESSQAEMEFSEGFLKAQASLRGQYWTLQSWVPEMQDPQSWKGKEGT
Put plainly: SPR; competition: 2 µM Lys-Pg, Glu-Pg or apo(a) with 0-5 mM EACA or TXA (small-molecule lysine analogs) injected over immobilized ADAMTS13 (or fibrinogen); same buffer and conditions as the binding experiments; both purified. In general terms: In SPR one partner is held on a chip, and binding of the other changes the refractive index at the surface.
For 17-kringle form of apolipoprotein(a), the binding result is “binds”.

Consider Glu-plasminogen, for which the binding entry is given as “binds”.

On to Lys-plasminogen, for which the binding entry is recorded as “binds”.
